This assay deals with A box of HMGB1 (human (A box stated to be the same for human, rat and mouse)). As to the kind of experiment: ELISA, Western blot analysis (FIG. 7).

These are yes or no findings as the source states them, for the method shown. Some results given as binding are weak or reduced against the parent protein; the word gives no strength.

B1: 10D4 HMGB1 mAb (antibody, V domains shown)
VH: EVQLQQSGTVLARPGASVKMSCKASGYSFTSYWMHWVKQRPGQGLEWIGAIYPGNRDASYNQKFKGKAKLTAVTSASTAYLELSSLTNEDSAVYYCTRDYGSFYFDYWGQGTTLTVSS
VL: DIQMTQTTSSLSASLGDRVTISCRASQDISNYLNWYQQKPDGTVKLLIYYTSRLHSGVPSRFSGSGSGTDYSLTISNLEQEDIATYFCQQGNTLPWTFGGGTKLEIK
For the molecule B1, the binding entry was “binds”.

These data come from US20050152903A1.
